Results: patent US11814402B2, “Binuclear palladacycles and their use in the treatment of cancer” (Stellenbosch University, priority 2019, dated 2023)
For part of these data: The name of at least one read-out is uncertain. Some entries share one result that the patent states for a list of compounds. For part of these data: At least one compound was matched to its structure with a doubt left.

How the values were obtained:
[1] = Solubility in DMSO and DMSO/water (characterisation data); details: in DMSO
[2] = test system: cleaved PARP in MCF7 cells; assay: Western blot, PARP cleavage (apoptosis); type: cell-based, human; details: treatment for 24 hours

| Compound | Solubility: DMSO [1] [mg/mL] | cleaved PARP (86 KD) (Western blot) [2] |
| --- | --- | --- |
| CC(C)c1cccc(C(C)C)c1[N+]1=Cc2cccc[c]2[Pd-2]1([Cl])[P+](c1ccccc1)(c1ccccc1)[c-]1cccc1.CC(C)c1cccc(C(C)C)c1[N+]1=Cc2cccc[c]2[Pd-2]1([Cl])[P+](c1ccccc1)(c1ccccc1)[c-]1cccc1.[Fe+2] (stereo not drawn) [BC4] | > 50 |  |
| CC(C)c1cccc(C(C)C)c1[N+]1=Cc2ccc(OCCOCCO)c[c]2[Pd-2]1([Cl])[P+](c1ccccc1)(c1ccccc1)[c-]1cccc1.CC(C)c1cccc(C(C)C)c1[N+]1=Cc2ccc(OCCOCCO)c[c]2[Pd-2]1([Cl])[P+](c1ccccc1)(c1ccccc1)[c-]1cccc1.[Fe+2] (stereo not drawn) [BTC4, [(PdCl{4-[2-(2-hydroxyethoxy)ethoxy]}CH═N{2,6-^iPr2-C6H3})2(μ-Ph2P(C5H4)Fe(C5H4)PPh2]] | > 50 |  |
| [(PdCl{4-[2-(2-hydroxyethoxy)ethoxy]}CH═N{2,6-^iPr2-C6H3})2(μ-Ph2P(CH2)2PPh2)] [BTC2] |  | presence of cleaved PARP |
